Measured values: article PMC11009412, “Pathogenic mutations of human phosphorylation sites affect protein–protein interactions” (Nature Communications, 2024)

Columns and labels:
[1] = molecular target: T1, BirA*-FLAG-GATAD1 wild-type (WT) (human) (UniProt Q8WUU5); assay: proximity labelling; BioID: BirA*-FLAG-GATAD1 variants in Flp-In-293 cells, tetracycline 24 h, 50 μM biotin overnight, streptavidin-sepharose enrichment, SILAC with label swap
T1 sequence: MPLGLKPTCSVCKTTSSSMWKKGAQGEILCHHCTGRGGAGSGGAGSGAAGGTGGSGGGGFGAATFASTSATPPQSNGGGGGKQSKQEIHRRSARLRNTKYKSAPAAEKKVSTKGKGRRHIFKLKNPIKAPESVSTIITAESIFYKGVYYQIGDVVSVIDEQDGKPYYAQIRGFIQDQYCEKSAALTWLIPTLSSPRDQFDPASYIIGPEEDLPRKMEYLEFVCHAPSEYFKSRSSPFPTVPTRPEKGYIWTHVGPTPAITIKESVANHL

[2] = molecular target: T2, GATAD1 pS102 peptide, position +5 to alanine (alanine scanning) (human) (UniProt Q8WUU5); assay: affinity purification with mass spectrometry; PRISMA alanine scanning: 15 GATAD1-derived peptides on a cellulose membrane in triplicates, pull-down from HEK-293T lysate, label-free quantification, one-way ANOVA; only the target purified
T2 sequence (peptide, phosphoserine at 102): LRNTKYKSAPAAAKK

[3] = molecular target: T3, GATAD1 pS102 peptide, position -1 to alanine (alanine scanning) (human) (UniProt Q8WUU5); assay: as above
T3 sequence (peptide, phosphoserine at 102): LRNTKYASAPAAEKK

[4] = molecular target: T4, GATAD1 pS102 peptide, proline in position +2 to alanine (alanine scanning) (human) (UniProt Q8WUU5); assay: as above
T4 sequence (peptide, phosphoserine at 102): LRNTKYKSAAAAEKK

[5] = molecular target: T5, GATAD1 pS102 peptide, position -4 to alanine (alanine scanning) (human) (UniProt Q8WUU5); assay: as above
T5 sequence (peptide, phosphoserine at 102): LRNAKYKSAPAAEKK

[6] = molecular target: T6, GATAD1 pS102 peptide, position +3 alanine to glycine (alanine scanning) (human) (UniProt Q8WUU5); assay: as above
T6 sequence (peptide, phosphoserine at 102): LRNTKYKSAPGAEKK

[7] = molecular target: T7, GATAD1 pS102 peptide, position +4 alanine to glycine (alanine scanning) (human) (UniProt Q8WUU5); assay: as above
T7 sequence (peptide, phosphoserine at 102): LRNTKYKSAPAGEKK

[8] = molecular target: T8, GATAD1 aspartic acid mutant (S102D) peptide on cellulose membrane (alanine scanning) (human) (UniProt Q8WUU5); assay: as above
T8 sequence (peptide): LRNTKYKDAPAAEKK

[9] = molecular target: T9, GATAD1 pS102 peptide, position -5 to alanine (alanine scanning) (human) (UniProt Q8WUU5); assay: as above
T9 sequence (peptide, phosphoserine at 102): LRATKYKSAPAAEKK

[10] = molecular target: T10, GATAD1 pS102 peptide, position -3 to alanine (alanine scanning) (human) (UniProt Q8WUU5); assay: as above
T10 sequence (peptide, phosphoserine at 102): LRNTAYKSAPAAEKK

[11] = molecular target: T11, GATAD1 S102P peptide on cellulose membrane (PRISMA) (human) (UniProt Q8WUU5); assay: as above
T11 sequence (peptide): LRNTKYKPAPAAEKK

[12] = molecular target: T12, GATAD1 pS102 peptide, position -2 to alanine (alanine scanning) (human) (UniProt Q8WUU5); assay: as above
T12 sequence (peptide, phosphoserine at 102): LRNTKAKSAPAAEKK

[13] = molecular target: T13, BirA*-FLAG-GATAD1 S102P (human) (UniProt Q8WUU5); assay: affinity purification with mass spectrometry; FLAG immunoprecipitation (ANTI-FLAG M2 magnetic beads, 2 h) of BirA*-FLAG-GATAD1 variants from tetracycline-induced Flp-In-293 T-REx lysate (50 mM Tris HCl pH 7.4, 150 mM NaCl, 1 mM EDTA, 1% Triton X-100); control non-induced cells; label-free, triplicates
T13 sequence: T1 sequence with S102P

[14] = molecular target: T14, BirA*-FLAG-GATAD1 S102A (human) (UniProt Q8WUU5); assay: as above
T14 sequence: T1 sequence with S102A

[15] = molecular target: T1, BirA*-FLAG-GATAD1 wild-type (WT) (human); assay: as above
[16] = molecular target: T15, BirA*-FLAG-GATAD1 S102D (human) (UniProt Q8WUU5); assay: as above
T15 sequence: T1 sequence with S102D

B1: EMSY (protein, UniProt Q7Z589 1-1322)
chain: MPVVWPTLLDLSRDECKRILRKLELEAYAGVISALRAQGDLTKEKKDLLGELSKVLSISTERHRAEVRRAVNDERLTTIAHNMSGPNSSSEWSIEGRRLVPLMPRLVPQTAFTVTANAVANAAIQHNASLPVPAETGSKEVVCYSYTSTTSTPTSTPVPSGSIATVKSPRPASPASNVVVLPSGSTVYVKSVSCSDEDEKPRKRRRTNSSSSSPVVLKEVPKAVVPVSKTITVPVSGSPKMSNIMQSIANSLPPHMSPVKITFTKPSTQTTNTTTQKVIIVTTSPSSTFVPNILSKSHNYAAVTKLVPTSVIASTTQKPPVVITASQSSLVSNSSSGSSSSTPSPIPNTVAVTAVVSSTPSVVMSTVAQGVSTSAIKMASTRLPSPKSLVSAPTQILAQFPKQHQQSPKQQLYQVQQQTQQQVAQPSPVSHQQQPQQSPLPPGIKPTIQIKQESGVKIITQQVQPSKILPKPVTATLPTSSNSPIMVVSSNGAIMTTKLVTTPTGTQATYTRPTVSPSIGRMAATPGAATYVKTTSGSIITVVPKSLATLGGKIISSNIVSGTTTKITTIPMTSKPNVIVVQKTTGKGTTIQGLPGKNVVTTLLNAGGEKTIQTVPTGAKPAILTATRPITKMIVTQPKGIGSTVQPAAKIIPTKIVYGQQGKTQVLIKPKPVTFQATVVSEQTRQLVTETLQQASRVAEAGNSSIQEGKEEPQNYTDSSSSSTESSQSSQDSQPVVHVIASRRQDWSEHEIAMETSPTIIYQDVSSESQSATSTIKALLELQQTTVKEKLESKPRQPTIDLSQMAVPIQMTQEKRHSPESPSIAVVESELVAEYITTERTDEGTEVAFPLLVSHRSQPQQPSQPQRTLLQHVAQSQTATQTSVVVKSIPASSPGAITHIMQQALSSHTAFTKHSEELGTEEGEVEEMDTLDPQTGLFYRSALTQSQSAKQQKLSQPPLEQTQLQVKTLQCFQTKQKQTIHLQADQLQHKLPQMPQLSIRHQKLTPLQQEQAQPKPDVQHTQHPMVAKDRQLPTLMAQPPQTVVQVLAVKTTQQLPKLQQAPNQPKIYVQPQTPQSQMSLPASSEKQTASQVEQPIITQGSSVTKITFEGRQPPTVTKITGGSSVPKLTSPVTSISPIQASEKTAVSDILKMSLMEAQIDTNVEHMIVDPPKKALATSMLTGEAGSLPSTHMVVAGMANSTPQQQKCRESCSSPSTVGSSLTTRKIDPPAVPATGQFMRIQNVGQKKAEESPAEIIIQAIPQYAIPCHSSSNVVVEPSGLLELNNFTSQQLDDEETAMEQDIDSSTEDGTEPSPSQSSAERS
binding [1]: binds

B2: 14-3-3 eta (protein, UniProt Q04917 1-246)
chain: MGDREQLLQRARLAEQAERYDDMASAMKAVTELNEPLSNEDRNLLSVAYKNVVGARRSSWRVISSIEQKTMADGNEKKLEKVKAYREKIEKELETVCNDVLSLLDKFLIKNCNDFQYESKVFYLKMKGDYYRYLAEVASGEKKNSVVEASEAAYKEAFEISKEQMQPTHPIRLGLALNFSVFYYEIQNAPEQACLLAKQAFDDAIAELDTLNEDSYKDSTLIMQLLRDNLTLWTSDQQDEEAGEGN
binding [2]: binds | binding [3]: binds | binding [4]: binds | binding [5]: binds | binding [6]: binds | binding [7]: binds | binding [8]: no binding | binding [9]: binds | binding [10]: binds | binding [11]: no binding | binding [12]: binds | binding [13]: no binding | binding [14]: no binding | binding [15]: no binding | binding [16]: no binding

B3: 14-3-3 theta (protein, UniProt P27348 1-245)
chain: MEKTELIQKAKLAEQAERYDDMATCMKAVTEQGAELSNEERNLLSVAYKNVVGGRRSAWRVISSIEQKTDTSDKKLQLIKDYREKVESELRSICTTVLELLDKYLIANATNPESKVFYLKMKGDYFRYLAEVACGDDRKQTIDNSQGAYQEAFDISKKEMQPTHPIRLGLALNFSVFYYEILNNPELACTLAKTAFDEAIAELDTLNEDSYKDSTLIMQLLRDNLTLWTSDSAGEECDAAEGAEN
binding [2]: binds | binding [3]: binds | binding [4]: binds | binding [5]: binds | binding [6]: binds | binding [7]: binds | binding [8]: no binding | binding [9]: binds | binding [10]: binds | binding [11]: no binding | binding [12]: binds | binding [13]: no binding | binding [14]: no binding | binding [15]: no binding | binding [16]: no binding

Where a chain is given by its changes, count along the chain named. These are yes or no findings as the source states them, for the method shown. Binding seen in cells or lysates may run through a third protein. A yes stands for co-enrichment or nearness to the bait. Other partners may have been found. For some of these results: No binding means not detected with the bait. For some of these results: Tags and fused reporters may be left off the sequences shown.
